From patent US20120041009A1, “PYRIMIDINE COMPOUND AND ITS USE IN PEST CONTROL” (SUMITOMO CHEMICAL COMPANY, LIMITED, priority 2009, published 2012)
Some of these results come from one statement about several compounds together. For at least one compound, name, drawing or mass did not settle the structure.

Tests used:
Tetranychus urticae = assay: Test Example 2: spray test against Tetranychus urticae on brush bean (Phaseolus vulgaris); assay type: in vivo; conditions: 500 ppm active ingredient, emulsifiable concentrate of Formulation Example 1, 30 ml per cup sprayed
Experimental: The formulation of each of the present compounds (1), (3), (5), (7) to (11), (13), (14), (18), (20), (22), (24), (26), (27), (29), (30) and (33) to (35) obtained in Formulation Example 1 was diluted with water so as to adjust the concentration of the active ingredient to 500 ppm to prepare a test spray solution.
About sixty female imagines of Tetranychus urticae were released on brush bean (Phaseolus vulgaris) in the primary leaf stage, which had been potted in a polyethylene cup for 7 days after the seeding. One day after release of female imagines of Tetranychus urticae, 30 ml (per cup) of the test spray solution was sprayed over the brush bean seedling.
On the 8th and 13th day after spraying, the numbers of survival Tetranychus urticae on the leaf of the brush bean plant were examined, and the control rate was calculated by the following equation.
Control rate=100×{1−(number of survival Tetranychus urticae in treated section)/(number of survival Tetranychus urticae in non-treated section)}

Aphis gossypii = assay: Test Example 1: spray test against Aphis gossypii on cucumber seedling; assay type: in vivo; conditions: 500 ppm active ingredient, flowable of Formulation Example 5, 20 ml per cup sprayed, six days after spraying

Question: `O=c1[nH]c(-c2cc(C(F)(F)F)ncn2)no1` [compound 1] was tested. Which control rate (Tetranychus urticae; 8th day after treatment) did it give?
Answer: ≥ 90%

Question: And the control rate (Tetranychus urticae; 13th day after treatment)?
Answer: ≥ 90%

Question: And the control value (Aphis gossypii)?
Answer: ≥ 60%

Question: Which control rate (Tetranychus urticae; 8th day after treatment) does the source give for `CC(C)(C)c1nc(-c2noc(=O)[nH]2)cc(C(F)(F)F)n1` [compound 3] here?
Answer: ≥ 90%

Question: And the control rate (Tetranychus urticae; 13th day after treatment)?
Answer: ≥ 90%

Question: Which results are given for `O=c1[nH]c(-c2cc(C(F)F)ncn2)no1` [compound 5]?
Answer: control rate (Tetranychus urticae; 8th day after treatment): ≥ 90%; control rate (Tetranychus urticae; 13th day after treatment): ≥ 90%

Question: How did the control value (Aphis gossypii) turn out when `CC(C)(C)C(=O)OCn1c(-c2cc(C(F)(F)F)ncn2)noc1=O` [compound 7] was run?
Answer: ≥ 60%

Question: What does the source list for `CC(C)(C)C(=O)OCn1c(-c2cc(C(F)(F)F)nc(C3CC3)n2)noc1=O` [compound 13]?
Answer: control rate (Tetranychus urticae; 8th day after treatment): ≥ 90%; control rate (Tetranychus urticae; 13th day after treatment): ≥ 90%

Question: For `O=CCCn1c(-c2cc(C(F)(F)F)nc(C3CC3)n2)noc1=O` [compound 14], which control rate (Tetranychus urticae; 8th day after treatment) is on record?
Answer: ≥ 90%

Question: What about the control rate (Tetranychus urticae; 13th day after treatment) of the same compound?
Answer: ≥ 90%

Question: `CC(C)c1nc(-c2noc(=O)[nH]2)cc(C(F)(F)F)n1` [compound 15] was tested. Which control value (Aphis gossypii) did it give?
Answer: ≥ 60%

Question: What does the source list for `O=c1nc(-c2cc(C(F)(F)C(F)(F)C(F)(F)F)ncn2)[nH]o1` [compound 18]?
Answer: control rate (Tetranychus urticae; 8th day after treatment): ≥ 90%; control rate (Tetranychus urticae; 13th day after treatment): ≥ 90%

Question: `O=c1[nH]c(-c2cc(-c3ccc(C(F)(F)F)cc3)ncn2)no1` [compound 20] was tested. Which control rate (Tetranychus urticae; 8th day after treatment) did it give?
Answer: ≥ 90%

Question: And the control rate (Tetranychus urticae; 13th day after treatment)?
Answer: ≥ 90%

Question: How did the control rate (Tetranychus urticae; 8th day after treatment) turn out when `O=c1[nH]c(-c2cc(C(F)(F)F)nc(C(F)(F)F)n2)no1` [compound 22] was run?
Answer: ≥ 90%

Question: What about the control rate (Tetranychus urticae; 13th day after treatment) of the same compound?
Answer: ≥ 90%

Question: What about the control value (Aphis gossypii) of the same compound?
Answer: ≥ 60%

Question: Which control rate (Tetranychus urticae; 8th day after treatment) does the source give for `O=c1[nH]c(-c2cc(-c3cccc(C(F)(F)F)c3)ncn2)no1` [compound 24] here?
Answer: ≥ 90%

Question: What about the control rate (Tetranychus urticae; 13th day after treatment) of the same compound?
Answer: ≥ 90%

Question: What about the control value (Aphis gossypii) of the same compound?
Answer: ≥ 60%

Question: With `O=c1[nH]c(-c2cc(OCC(F)(F)F)ncn2)no1` [compound 26] as the compound, how does the control rate (Tetranychus urticae; 8th day after treatment) read?
Answer: ≥ 90%

Question: And the control rate (Tetranychus urticae; 13th day after treatment)?
Answer: ≥ 90%

Question: For `O=c1[nH]c(-c2cc(C(F)(F)C(F)(F)F)nc(C3CC3)n2)no1` [compound 27], which control rate (Tetranychus urticae; 8th day after treatment) is on record?
Answer: ≥ 90%

Question: And the control rate (Tetranychus urticae; 13th day after treatment)?
Answer: ≥ 90%

Question: For `O=c1onc(-c2cc(C(F)(F)F)nc(C3CC3)n2)n1CC1CC1` [compound 29], which control rate (Tetranychus urticae; 8th day after treatment) is on record?
Answer: ≥ 90%

Question: What about the control rate (Tetranychus urticae; 13th day after treatment) of the same compound?
Answer: ≥ 90%

Question: What does the source list for `O=c1[nH]c(-c2cc(-c3ccccc3C(F)(F)F)ncn2)no1` [compound 30]?
Answer: control rate (Tetranychus urticae; 8th day after treatment): ≥ 90%; control rate (Tetranychus urticae; 13th day after treatment): ≥ 90%

Question: `Cc1nc(-c2ccc(F)cc2)cc(-c2noc(=O)[nH]2)n1` [compound 48] was tested. Which control value (Aphis gossypii) did it give?
Answer: ≥ 60%

Question: `Cc1nc(-c2noc(=O)[nH]2)cc(-c2ccccc2C)n1` [compound 49] was tested. Which control value (Aphis gossypii) did it give?
Answer: ≥ 60%
